Measured data: PubChem BioAssay AID1259308 (NCATS, 2017)
Screen: 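Genes whose loss raises luciferase production in HEK293 cells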 (primary screen). Cells: human HEK293 embryonic kidney cells stably expressing firefly luciferase (HEK-CMV-Luc2-Hygro). Reagent: single siRNA against human genes, 0.8 pmol siRNA per well. Timing: 72 h. Measured: 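Reporter luminescence and viable-cell signal on separate replicate plates, given as percent of non-targeting control and median/MAD z-scores, plus per-cell luciferase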. Reading the numbers: total luciferase, z-score and total luciferase, % of control: higher = more reporter protein produced; luciferase per cell, z-score: higher = more reporter output per viable cell; viable cells, % of control: higher = more viable cells. Hit rule: 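Active when the median/MAD z-score for overall luciferase is greater than 3; a gene was taken forward for validation with new siRNAs if at least two of its three siRNAs passed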. Calls: active = raised luciferase; inactive = no rise.
In all, the deposit lists about 59,000 reagents; this is an unselected part. About 1,510 of them (2.6%) were called active. 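Calls use total luciferase alone and ignore viability, so some active siRNAs may act by altering cell number.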 The numbers tell different reagents against one gene apart.

total luciferase, z-score | total luciferase, % of control | luciferase per cell, z-score | viable cells, % of control | outcome | gene | reagent no.
-2.06 | 40.9 | -1.55 | 68.7 | inactive | CYP4A22 | 1
-0.736 | 67.3 | 0.794 | 61 | inactive | CYP4A22 | 2
0.8 | 97.8 | 0.876 | 86.8 | inactive | CYP4A22 | 3
-0.717 | 67.6 | -1.16 | 103 | inactive | WDR83 | 1
-0.369 | 74.6 | -0.541 | 96.1 | inactive | WDR83 | 2
0.122 | 84.3 | 0.16 | 90.3 | inactive | WDR83 | 3
0.0479 | 82.8 | 0.0491 | 91.4 | inactive | LOC727775 (retired record) | 1
3.34 | 148 | 1.68 | 107 | active | LOC727775 (retired record) | 2
1.06 | 103 | 1.86 | 70.7 | inactive | LOC727775 (retired record) | 3
-0.496 | 72 | -0.551 | 93 | inactive | CCR5 | 1
0.0322 | 82.5 | 0.313 | 84.9 | inactive | CCR5 | 2
0.542 | 92.7 | -0.181 | 109 | inactive | CCR5 | 3
-1.59 | 50.3 | -1.62 | 86.1 | inactive | PLCG2 | 1
-0.228 | 77.3 | -0.587 | 101 | inactive | PLCG2 | 2
-0.0558 | 80.8 | -0.0145 | 90.6 | inactive | PLCG2 | 3
0.601 | 93.8 | 1.97 | 62.4 | inactive | ALDOA | 1
0.3 | 87.8 | 0.778 | 80 | inactive | ALDOA | 2
-0.629 | 69.4 | 1.02 | 59.2 | inactive | ALDOA | 3
0.384 | 89.5 | 0.817 | 80.7 | inactive | RIMKLA | 1
0.65 | 94.8 | 0.223 | 99.9 | inactive | RIMKLA | 2
-1.05 | 61.1 | -1.84 | 111 | inactive | RIMKLA | 3
-0.641 | 69.1 | -0.497 | 88.1 | inactive | ALKBH8 | 1
-1.72 | 47.7 | -1.95 | 89.1 | inactive | ALKBH8 | 2
-0.539 | 71.2 | -0.756 | 97 | inactive | ALKBH8 | 3

Part of the list above, reduced to “total luciferase, z-score”:
CYP4A22 #2	-0.736
CYP4A22 #3	0.8
WDR83 #1	-0.717
